Test results: the supplement of paper PMC10849652
Some of the results follow.

Amino acid sequences for entries named in this document (tags omitted). A change or cut given only in a name is not applied to a line headed by its entry.
UniProt Q9H633: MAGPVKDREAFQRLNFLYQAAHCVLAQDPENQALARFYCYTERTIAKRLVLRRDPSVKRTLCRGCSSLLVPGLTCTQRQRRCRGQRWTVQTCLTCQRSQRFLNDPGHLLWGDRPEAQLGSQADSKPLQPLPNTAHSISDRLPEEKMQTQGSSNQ

What was measured:
Test in all cases: log2 fold change, soluble protein after heating vs DMSO (PISA); higher = thermal stabilisation; K562 cells, 10 uM, 30 min; active = over 0.2 and 3.5 SD of the protein, either way, in both replicates (recomputed)
[1] = compound: CC[C@@H]1C(=O)N(C)c2cnc(Nc3ccc(C(=O)NC4CCN(C)CC4)cc3OC)nc2N1C1CCCC1
Method in brief: (§1)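 Thermal stability values are relative to control samples and come from duplicates. They are expressed as log2 fold changes. For measurement, K562 cells (2×10^6 cells/mL) received 10 μM compound for 30 min, and aliquots were heated for 3 min over 48°C-58°C, pooled, and extracted at 4°C in PBS with 0.5% NP-40. Soluble protein, the supernatant after 21,000xg for 90 min, was quantified by TMTpro 16plex LC-MS/MS with equalised channel sums.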

volasertib = compound: CC[C@@H]1C(=O)N(C)c2cnc(Nc3ccc(C(=O)N[C@H]4CC[C@H](N5CCN(CC6CC6)CC5)CC4)cc3OC)nc2N1C(C)C [volasertib]
Method in brief: as §1

[2] = compound: CC[C@H](C)N1C=C(C2=C(C=C(C=C21)C3=CN=C(C=C3)N4CCNCC4)C(=O)NCC5=C(C=C(NC5=O)C)C)C
Method in brief: as §1

epoxomicin = compound: CC[C@H](C)[C@@H](C(=O)N[C@@H]([C@@H](C)O)C(=O)N[C@@H](CC(C)C)C(=O)[C@]1(CO1)C)NC(=O)[C@H]([C@@H](C)CC)N(C)C(=O)C [epoxomicin]
Method in brief: as §1

[3] = compound: CCn1c(C(=O)N(C2CC2)C2CC2)cc2c3c(ncn3C)c(Nc3cc(C)n(C)n3)nc21
Method in brief: as §1

[4] = compound: CCn1cc(-c2ccnc3[nH]c(-c4cccc(CN(C)C)c4)cc23)c(-c2ccc(NC(=O)N(C)C)cc2)n1
Method in brief: as §1

[5] = compound: CN(C)CC(=O)Nc1ccc2[nH]c(=O)c3ccccc3c2c1
Method in brief: as §1

rosiglitazone = compound: CN(CCOC1=CC=C(C=C1)C[C@H]2C(=O)NC(=O)S2)C3=CC=CC=N3 (racemic) [rosiglitazone]
Method in brief: as §1

[6] = compound: CN1C2=C(C3=C1C(=O)N(N=C3)CC4=CC(=CC=C4)N)SC(=C2)S(=O)C
Method in brief: as §1

[7] = compound: CN1CCC(CNc2ccc3ncc(-c4cccc(OC(F)(F)F)c4)n3n2)CC1
Method in brief: as §1

Measured: log2 fold change

RPL22 (UniProt P35268)
inactive: [1] 0.189 | volasertib 0.335 | [2] -0.005 | epoxomicin -0.259 | [3] 0.013 | [4] 0.156 | [5] -0.087 | rosiglitazone -0.045 | [6] 0.167 | [7] 0.164

RPL8 (UniProt P62917)
inactive: [1] 0.253 | volasertib 0.767 | [2] -0.035 | epoxomicin -0.68 | [3] 0.006 | [4] 0.437 | [5] -0.284 | rosiglitazone -0.332 | [6] 0.57 | [7] 0.506

RPL13A (UniProt P40429)
inactive: [1] 0.31 | volasertib 0.794 | [2] 0.011 | epoxomicin -0.654 | [3] 0.046 | [4] 0.303 | [5] -0.314 | rosiglitazone -0.34 | [6] 0.516 | [7] 0.478

RPL28 (UniProt P46779)
inactive: [1] 0.287 | volasertib 0.718 | [2] 0.009 | epoxomicin -0.776 | [3] 0.055 | [4] 0.286 | [5] -0.242 | rosiglitazone -0.278 | [6] 0.529 | [7] 0.386

RPP21 isoform 4 (UniProt Q9H633)
inactive: [1] 0.096 | volasertib -0.015 | [2] 0.08 | epoxomicin 0.004 | [3] 0.104 | [4] -0.345 | [5] -0.009 | rosiglitazone 0.015 | [6] 0.011 | [7] 0.216

RPL14 (UniProt P50914)
inactive: [1] 0.275 | volasertib 0.795 | [2] 0.007 | epoxomicin -0.713 | [3] 0.062 | [4] 0.284 | [5] -0.333 | rosiglitazone -0.336 | [6] 0.544 | [7] 0.549

RPS25 (UniProt P62851)
inactive: [1] 0.063 | volasertib 0.338 | [2] 0.012 | epoxomicin -0.172 | [4] 0.134 | [5] -0.03 | [6] 0.122 | [7] 0.146
